According to the supplement of paper PMC4604168 (melanoma cell lines):
The other results are listed elsewhere or left out. Single values are uncertain, as repeats are few or missing.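 Cells were imaged in 1,536-well plates, and nuclei stained with an antibody against cleaved PARP were counted against all DNA-stained nuclei to give the apoptosis fraction. Screening doses were chosen to leave most cells alive, and resting and induced cleaved-PARP levels differ strongly between cell lines.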

How the values were obtained:
Assay in all cases: cleaved PARP positive nuclei fraction relative to DMSO control; melanoma cells; higher = more apoptosis
Details in all cases: library dose: low library concentration; 72 h
501Mel = system: 501Mel
A101D = system: A101D
A2058 = system: A2058
A375 = system: A375
C32 = system: C32
CBRC008 = system: CBRC008 (line from a melanoma biopsy)
CBRC014 = system: CBRC014 (line from a melanoma biopsy)
CBRC016 = system: CBRC016 (line from a melanoma biopsy)
CBRC017 = system: CBRC017 (line from a melanoma biopsy)
CBRC034 = system: CBRC034 (line from a melanoma biopsy)
COLO792 = system: COLO792
COLO800 = system: COLO800
COLO829 = system: COLO829
G361 = system: G361
IPC-298 = system: IPC-298
IST-MEL1 = system: IST-MEL1
LB2518-MEL = system: LB2518-MEL
LOXIMVI = system: LOXIMVI
MEL-HO = system: MEL-HO

SMILES | cleaved PARP positive nuclei fraction (501Mel) [%] | cleaved PARP positive nuclei fraction (A101D) [%] | cleaved PARP positive nuclei fraction (A2058) [%] | cleaved PARP positive nuclei fraction (A375) [%] | cleaved PARP positive nuclei fraction (C32) [%] | cleaved PARP positive nuclei fraction (CBRC008) [%] | cleaved PARP positive nuclei fraction (CBRC014) [%] | cleaved PARP positive nuclei fraction (CBRC016) [%] | cleaved PARP positive nuclei fraction (CBRC017) [%] | cleaved PARP positive nuclei fraction (CBRC034) [%] | cleaved PARP positive nuclei fraction (COLO792) [%] | cleaved PARP positive nuclei fraction (COLO800) [%] | cleaved PARP positive nuclei fraction (COLO829) [%] | cleaved PARP positive nuclei fraction (G361) [%] | cleaved PARP positive nuclei fraction (IPC-298) [%] | cleaved PARP positive nuclei fraction (IST-MEL1) [%] | cleaved PARP positive nuclei fraction (LB2518-MEL) [%] | cleaved PARP positive nuclei fraction (LOXIMVI) [%] | cleaved PARP positive nuclei fraction (MEL-HO) [%]
O=c1[nH]nc(Sc2ncc([N+](=O)[O-])s2)n1-c1ccc2c(c1)OCCO2 + CO[C@H]1C[C@@H]2CC[C@@H](C)[C@@](O)(O2)C(=O)C(=O)N2CCCC[C@H]2C(=O)O[C@H]([C@H](C)C[C@@H]2CC[C@@H](OCCO)[C@H](OC)C2)CC(=O)[C@H](C)/C=C(\C)[C@@H](O)[C@@H](OC)C(=O)[C@H](C)C[C@H](C)/C=C/C=C/C=C/1C [everolimus] (first compound 0.2 µM, partner dose 0.02 µM) | 157 | 102 | 118 | 547 | 263 | 93 | 114 | 187 | 110 | 79 | 208 | 93.4 | 181 | 275 | 220 | 90.1 | 449 | 78.1 | 402
COc1cc([C@@H]2c3cc4c(cc3[C@@H](O[C@@H]3O[C@@H]5CO[C@@H](C)O[C@H]5[C@H](O)[C@H]3O)[C@H]3COC(=O)[C@H]23)OCO4)cc(OC)c1O [etoposide] + Nc1nc(F)nc2c1ncn2[C@@H]1O[C@H](CO)[C@@H](O)[C@@H]1O [fludarabine] (first compound 0.02 µM, partner dose 0.2 µM) | 15600 | 46.5 | 85.5 | 1650 | 81.7 | 81.3 |  | 177 | 119 | 29.2 | 129 | 23.9 | 70 | 55.3 | 138 | 400 | 207 | 45 | 60.4
O=C(/C=C/c1cccnc1)NCCCCC1CCN(C(=O)c2ccccc2)CC1 + Cn1sc(=O)n(Cc2ccccc2)c1=O [TDZD-8] (first compound 0.01 µM, partner dose 0.4 µM) | 115 | 84 | 136 | 181 | 83.9 | 4150 | 88.3 | 1880 | 660 | 2140 | 400 | 358 | 256 | 3080 | 210 | 86 | 299 | 95.6 | 84.1
COc1cc([C@@H]2c3cc4c(cc3[C@@H](O[C@@H]3O[C@@H]5CO[C@@H](C)O[C@H]5[C@H](O)[C@H]3O)[C@H]3COC(=O)[C@H]23)OCO4)cc(OC)c1O [etoposide] + Nc1ncn([C@H]2C[C@H](O)[C@@H](CO)O2)c(=O)n1 [decitabine] (first compound 0.02 µM, partner dose 0.1 µM) | 96.4 | 104 | 140 | 54.1 | 72.5 | 91.1 | 94.4 | 231 | 129 | 94.7 |  | 64.8 | 86.7 | 161 | 66.3 | 150 | 111 | 104 | 219
N#CC[C@H](C1CCCC1)n1cc(-c2ncnc3[nH]ccc23)cn1 [ruxolitinib] + COc1cc([C@@H]2c3cc4c(cc3[C@@H](O[C@@H]3O[C@@H]5CO[C@@H](C)O[C@H]5[C@H](O)[C@H]3O)[C@H]3COC(=O)[C@H]23)OCO4)cc(OC)c1O [etoposide] (first compound 1 µM, partner dose 0.02 µM) | 58.3 | 155 | 69 | 47.2 |  | 55.5 | 79.8 | 198 | 110 | 102 | 86.4 | 61.5 | 86 | 105 | 44.5 | 106 | 154 | 33.5 | 64.7
CC[C@]1(O)C[C@H]2CN(CCc3c([nH]c4ccccc34)[C@@](C(=O)OC)(c3cc4c(cc3OC)N(C=O)[C@H]3[C@@](O)(C(=O)OC)[C@H](OC(C)=O)[C@]5(CC)C=CCN6CC[C@]43[C@@H]65)C2)C1 [vincristine] + COc1ccc(COc2ccc(Cc3cnc(N)nc3N)cc2OC)cc1 [GW2580] (first compound 0.0001 µM, partner dose 1 µM) | 75.8 | 29.9 | 65.5 |  | 92.2 | 95.9 | 75.9 | 20.9 | 113 |  | 140 | 74 | 132 | 183 | 86.2 | 134 | 59.1 | 222 | 
Cc1ccc(Nc2nccc(N(C)c3ccc4c(C)n(C)nc4c3)n2)cc1S(N)(=O)=O [Pazopanib] + O=C1NC(=O)/C(=C/c2ccc(-c3ccc(F)cc3O)o2)S1 [AS252424] (first compound 0.4 µM, partner dose 1 µM) | 83 | 11.5 | 73.8 |  | 106 | 264 | 101 | 38.1 | 185 |  | 171 | 39.2 | 54.6 | 49.5 | 119 | 186 | 95.2 | 158 | 
Cc1ccc(Nc2nccc(N(C)c3ccc4c(C)n(C)nc4c3)n2)cc1S(N)(=O)=O [Pazopanib] + O=C(O)C(=O)Nc1sc2c(c1C(=O)O)CCNC2 [TCS401] (first compound 0.4 µM, partner dose 1.66667 µM) | 58.3 | 31.1 | 46.2 |  | 142 | 207 | 107 | 72.6 | 126 |  | 55.9 | 74.5 | 142 | 166 | 61.1 | 80.4 | 69.7 | 94.1 | 
CCCCCCCCCCCCCCCCCCOP(=O)([O-])OC1CC[N+](C)(C)CC1 [Perifosine] + Oc1cc(-c2nc(-c3ccccc3)[nH]c2-c2ccncc2)ccc1Cl [L779450] (first compound 0.4 µM, partner dose 0.2 µM) | 36.3 | 30.8 | 71.1 |  | 93.5 | 152 | 127 | 39.1 | 76.5 |  | 161 | 92.7 | 68.9 | 227 | 56.4 | 87.3 | 41.4 | 86.3 | 
O=c1[nH]nc(Sc2ncc([N+](=O)[O-])s2)n1-c1ccc2c(c1)OCCO2 + c1cc(-c2cnn3cc(-c4ccc(OCCN5CCCCC5)cc4)cnc23)ccn1 [Dorsomorphin] (first compound 0.2 µM, partner dose 0.4 µM) | 74.9 | 21.2 | 164 |  | 53.7 | 53.5 | 96.9 | 82.3 | 110 |  | 46.9 | 66.2 | 20.8 | 92.3 | 61.7 | 152 | 63.5 | 51.8 | 
N#CC[C@H](C1CCCC1)n1cc(-c2ncnc3[nH]ccc23)cn1 [ruxolitinib] + COc1ccc(COc2ccc(Cc3cnc(N)nc3N)cc2OC)cc1 [GW2580] (first compound 1 µM, partner dose 1 µM) | 176 | 24.5 | 67.8 |  | 87.5 | 81.5 | 84 | 74.1 | 119 |  | 46.1 | 30.1 | 75.6 | 81.3 | 36.4 | 81.4 | 55.7 | 46.8 | 
